Activity data for 108 compounds are collected here from PubChem BioAssay AID1347421 (Sanford-Burnham Center for Chemical Genomics, 2020).

Sequences of proteins named here, by UniProt entry; tags and fusion partners are left off. A change or cut given only in a name is not applied to a line headed by its entry.
UniProt O00391: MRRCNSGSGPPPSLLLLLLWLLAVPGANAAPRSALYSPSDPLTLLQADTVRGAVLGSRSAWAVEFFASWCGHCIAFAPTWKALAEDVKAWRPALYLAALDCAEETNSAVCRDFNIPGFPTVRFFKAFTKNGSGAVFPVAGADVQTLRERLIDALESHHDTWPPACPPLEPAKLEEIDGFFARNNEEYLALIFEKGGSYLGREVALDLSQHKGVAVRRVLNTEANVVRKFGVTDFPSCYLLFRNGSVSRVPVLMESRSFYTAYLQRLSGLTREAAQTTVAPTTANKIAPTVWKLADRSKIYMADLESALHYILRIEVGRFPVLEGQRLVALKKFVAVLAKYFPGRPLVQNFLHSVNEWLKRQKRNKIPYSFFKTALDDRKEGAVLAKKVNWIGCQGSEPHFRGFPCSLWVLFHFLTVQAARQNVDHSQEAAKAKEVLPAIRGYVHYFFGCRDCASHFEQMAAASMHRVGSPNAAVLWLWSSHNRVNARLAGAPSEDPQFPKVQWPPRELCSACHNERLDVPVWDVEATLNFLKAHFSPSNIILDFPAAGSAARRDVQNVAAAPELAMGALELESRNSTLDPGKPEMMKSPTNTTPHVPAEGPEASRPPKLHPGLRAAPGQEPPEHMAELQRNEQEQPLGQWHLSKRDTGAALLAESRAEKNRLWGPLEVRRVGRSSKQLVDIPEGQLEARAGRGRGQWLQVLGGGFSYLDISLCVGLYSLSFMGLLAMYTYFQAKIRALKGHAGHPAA

In all, about 1,500 compounds were measured (“activity”: median about 2, lowest 2% from about -18 on). The list shows a part of the results. Activity calls are given as the source filed them.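 How the source made its calls: active means inhibition of at least 40% at 10 µM; inconclusive means no clear call, values can overlap the other calls; inactive means the rest.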

For this test, the target named is Sulfhydryl oxidase 1 (Homo sapiens) (UniProt O00391). Briefly: QSOX1 enzyme inhibitors, confirmation, biochemical, ROS-Glo luminescence, single concentration (AID 1347421).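 Further: 0% = DMSO wells with enzyme and 100% = wells lacking QSOX1 enzyme.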 The conditions noted are these: recombinant hQSOX1, RNase A substrate, ROS-Glo H2O2 luminescence; at 10 µM.
As for `Cc1nc(C)c(CN2C[C@H]3OC(=O)N(CCCc4ccc(F)cc4)[C@H]3C2)nc1C`, the activity was 8.2%.
For the compound `CCCCNC(=O)N1CCN(Cc2ccccc2Cl)CC1`, the activity is inactive: -7%.
For the compound `COc1cccc(CN2CCNC(=O)C2CC(=O)NCCc2cn3ccccc3n2)c1OC` (stereo not drawn), the activity is 1.8%.
As to `CN(C)S(=O)(=O)N1CCc2ccc(NC(=O)C3CCCO3)cc2C1` (stereo not drawn), the activity was found to be 2.5%.
For `Cc1n[nH]c(C)c1NC(=O)c1cc2ccccc2oc1=O` the value was inactive: -15.4%; for `COc1ccc(F)c(CN2CCCC3(CCN(CCCn4cccn4)C3)C2)c1` (stereo not drawn), 4.7%; for `CCN1CCN(CC(O)COc2cccc(CNCC3CCN(C)CC3)c2)CC1` (stereo not drawn), 0.4%.
For `CCOC(=O)c1nc(-c2ccc(F)cc2)no1` the value was inactive: -21.6%; for `O=C(CCn1cncn1)N1CCOC(CCc2ccccc2)C1` (stereo not drawn), inactive: -3.7%.
In the case of `CSc1nccc(N2C[C@H]3OC(=O)N(CCN4CCCCC4)[C@H]3C2)n1`, the activity is 9%.
For `COc1ccccc1OCC(=O)NCC1CCCN(C(=O)CSc2nc(C)cs2)C1` (stereo not drawn) the value was 6.2%; for `CN(CC1(O)CCCN(CC(C)(C)C)C1=O)C1CCOCC1` (stereo not drawn), 4.9%.
For `c1cncc(-c2nn3cnnc3s2)c1` the value was inactive: -3.2%.
Regarding `O=C1CCCN1c1cccc(NCC2(c3ccc(F)cc3)CCOC2)c1` (stereo not drawn), the activity came to 3.1%.
For the compound `ClC1=C(OCCNCC2CCCO2)[C+]=Cc2ccccc21` (stereo not drawn), the activity worked out at 0.2%.
On to `O=C(COc1ccccc1)Nc1ccc(N2CCN(C(=O)c3ccco3)CC2)cc1`, for which the activity was inactive: -18%.
In the case of `Cn1cc([C@@H]2C[C@H]3CN(Cc4cccc(Cl)c4)C(=O)[C@]34CCCN24)cn1`, the activity is inactive: 0%.
Regarding `CCN(Cc1cnn(C)c1)Cc1cccc(OC)c1OCC(O)CN1CCOCC1` (stereo not drawn), the activity was inactive: -4%.
As for `Cc1c(CNCC2(O)CCCN(Cc3ccc(F)c(F)c3)C2=O)cnn1C` (stereo not drawn), the figure is inactive: -3.9%; as for `O=C(Cn1cncn1)N1CCOC(Cc2cccc(C(F)(F)F)c2)C1` (stereo not drawn), inactive: -4.8%.
For `COCC(=O)N1CCCC1c1ccc(C(=O)NCc2ccccc2Cl)s1` (stereo not drawn) the value was inactive: -5.5%; for `COc1ccccc1C(=O)Nc1ccnn1C1CCN(CC2CCOC2)CC1` (stereo not drawn), 0.9%; for `O=C(c1ccncc1)N(CC1CCN(C2Cc3ccccc3C2)CC1)CC1CCCO1` (stereo not drawn), 1.5%.
Consider `CC(C)(C)NC(=O)NC(=O)c1ccccc1`, for which the activity turned out to be 2.4%.
As for `COc1ccccc1/C=C/CN1CCNC(=O)C1CC(=O)NCCCn1cccn1` (stereo not drawn), the figure is 2.9%; as for `COCCNC(=O)CCC1CCN(C(=O)CCCCc2ccccc2)CC1`, 6.8%; as for `CC(C)N1CC(C(=O)NC2CCCC2)CC1=O` (stereo not drawn), 6.2%.
As for `O=C(CCC1CCCN(CC2CC2)C1)N1CCN(Cc2ccccc2)CC1` (stereo not drawn), the figure is 0.3%; as for `CN(CC1CCCCO1)C(=O)c1cc(COc2cccc(F)c2)[nH]n1` (stereo not drawn), inactive: 0%; as for `O=C(NCCCn1cccn1)c1cn(Cc2ccc(Cl)cc2)nn1`, inactive: -4.9%.
For `O=C(CN1CCCCC1)NC1CC(=O)N(Cc2ccccc2Cl)C1` (stereo not drawn), the activity worked out at 3.8%.
As for `CN(C(=O)c1ccc2c(c1)OCCO2)C1CCCN(C2Cc3ccccc3C2)C1` (stereo not drawn), the figure is 4%; as for `Cc1nc(CNC(=O)c2ccc3oc(C(C)C)nc3c2)cs1`, 8%.
In the case of `COC(=O)c1cc(C(=O)OC)n(Cc2ccc(F)cc2)n1`, the activity was inactive: -4.7%.
As for `Fc1ccc(CC2CN(C3CCOCC3)CCO2)cc1` (stereo not drawn), the figure is 0.2%; as for `Cc1cccc(N2CCN(CC(=O)Nc3ccc(S(N)(=O)=O)cc3)CC2)c1C`, inactive: -11.2%; as for `CCN(CC)C(=O)CCc1nnc(-c2ccccc2)o1`, inactive: -5.5%.
As for `CCCS(=O)(=O)N1CCC(CCOc2ccccc2)(C(=O)OCC)CC1`, the activity stood at 3.3%.
Regarding `Cc1nc2nc(CSc3nc4ccccc4s3)cc(=O)n2[nH]1`, the activity is inactive: -0.7%.
For `COc1cc(CNCC2CCCCC2)ccc1OCC(O)CN1CCC(O)CC1` (stereo not drawn) the value was 9.1%.
As for `COc1cc(CN2CCc3[nH]nc(-c4ccccc4)c3C2)cc2c1OCO2`, the activity came out at 11.8%.
Regarding `COc1cccc(C(=O)N2CCN(Cc3cn[nH]c3-c3ccc(F)cc3F)CC2)c1`, the activity turned out to be 1.9%.
As for `CCN1CCN(CC(O)COc2cccc(CNCCCn3cccn3)c2)CC1` (stereo not drawn), the figure is 0.3%.
As for `Cc1occc1C(=O)NC1CC(=O)N(Cc2cccc3ccccc23)C1` (stereo not drawn), the figure is 1.4%; as for `COC(=O)C1CCN(C(=O)c2cn(Cc3ccc(F)cc3Cl)nn2)CC1`, 4.3%; as for `COc1ccc(C(N)=O)cc1S(=O)(=O)NC(C)C`, inactive: -19.1%.
For `Cc1occc1C(=O)Nc1nc2c(s1)CCCCC2` the value was active: 79.9%; for `Cc1nn(-c2ccccc2)c(C)c1CC(=O)NC1CCCN(C2CCN(C)CC2)C1` (stereo not drawn), inactive: -0.8%; for `c1ccc2oc(-c3cnnc(N4CCC(N5CCSCC5)CC4)n3)cc2c1`, 13.5%.
`Cc1cc(=O)n2[nH]c(SCc3ccccc3)nc2n1`: the activity is 4.3%.
As to `COc1cccc(CC2CN(C(=O)CSC)CCO2)c1` (stereo not drawn), the activity is 1.5%.
As for `COc1cc(CNCC2(O)CCCCC2)ccc1OCC(O)CN(C)C(C)C` (stereo not drawn), the figure is 2.5%.
Regarding `O=C(NCC1CCCN(Cc2nc3ccccc3s2)C1)c1ccc2c(c1)OCO2` (stereo not drawn), the activity came out at 4.1%.
As for `COc1ccc(CNCCc2cnc[nH]2)c(OCC(O)CN2CCCC2)c1` (stereo not drawn), the figure is 7%; as for `CCOC(=O)C1CCCN(Cc2cn(C)nc2-c2ccccc2F)C1` (stereo not drawn), 6.6%.
For `CCN(CCn1cccn1)Cc1cccc(OCC(O)CN2CCOCC2)c1` (stereo not drawn) the value was 6.3%.
For `COc1cc(CN(C)C)ccc1OCC(O)CN(C)C(C)C` (stereo not drawn) the value was 6.9%; for `Nc1ncnc(N(c2ccccc2)c2ccccc2)n1`, inactive: -1.7%; for `O=C(CN1CCCCCC1)Nc1ccc(Cl)cc1`, inactive: -10%.
Regarding `CCn1c(C2CCCO2)nc2ccccc21` (stereo not drawn), the activity is inactive: -18.1%.
As to `COc1ccc(Nc2nc(N)nc(C(F)(F)F)n2)cc1`, the activity is inactive: -11.1%.
For `COc1ccc(C2CC(=O)c3cnc(NC4CC4)nc3C2)cc1` (stereo not drawn) the value was 3.9%.
Turning to `COc1ccc(OCc2cc(C(=O)N3CCSCC3)no2)c2ccccc12`, the activity was found to be 4.2%.
Take `COc1ccc(OC)c(CN2CCc3onc(-c4ccccc4F)c3C2)c1`: the activity is 6%.
As for `O=C(Nc1ccc2c(c1)OCCO2)c1ccc(=O)[nH]n1`, the figure is inactive: -1.3%; as for `COc1ccccc1CCN1CCCC(CN(C)C(=O)CCCn2cncn2)C1` (stereo not drawn), inactive: -4.1%; as for `O=C(c1ccc2c(c1)no[n+]2[O-])N1CCCC(Nc2ccc3c(c2)OCCO3)C1` (stereo not drawn), inactive: -1.5%.
As for `Cn1ccnc1C1CCCCN1Cc1c(C(=O)N2CCCCCCC2)nc2sccn12` (stereo not drawn), the figure is 10.8%; as for `CC(C)Oc1cccc(C(=O)Nc2ccc3[nH]c(=O)[nH]c3c2)c1`, 5.2%.
`O=C(Nc1ccccc1N1CCN(C(=O)c2ccc(Cl)cc2)CC1)c1ccco1`: the activity was found to be 0.8%.
As for `Cc1ccc(CCNCC2(c3cccc(F)c3)CCOC2)o1` (stereo not drawn), the figure is 4%.
As for `CCC(Cn1ccnc1)NC(=O)c1cc(-c2cn[nH]c2)nc2cc(F)ccc12` (stereo not drawn), the figure is 4%.
For `O=C(C1COc2ccccc2C1)N1CCc2onc(-c3ccccc3F)c2C1` (stereo not drawn) the value was 17.7%; for `O=C(c1cn2ccsc2n1)N1CCCC(Nc2ccc3c(c2)OCCO3)C1` (stereo not drawn), 3.5%.
For the compound `Oc1ccc(Cl)cc1CNC1CCCN(c2ncccn2)C1` (stereo not drawn), the activity stood at 0.8%.
As for `CCOc1ccc(CNCCCNCCO)cc1`, the figure is 8.8%; as for `O=C(c1cccc(-n2cnnc2)c1)N1CCOC(Cc2ccccc2)C1` (stereo not drawn), inactive: -1.6%.
For `CN1CCC(N(C)C(=O)CCC2CCCN(Cc3cc4ccccc4s3)C2)CC1` (stereo not drawn), the activity was 6.1%.
`O=C(CCn1nc(-c2ccccc2)c2ccccc2c1=O)NN1CCOCC1`: the activity came to 4.4%.
On to `COc1cccc(OC)c1-c1cnnc(NC(C)c2cnn(C)c2C)n1` (stereo not drawn), for which the activity is 1.2%.
As for `O=C(C(NS(=O)(=O)c1ccccc1)c1ccccc1)N1CCCCC1` (stereo not drawn), the figure is inactive: -5.7%; as for `C#CCN(CC=C)Cc1cnc(S(C)(=O)=O)n1CCCc1ccccc1`, inactive: -3.7%; as for `CCOC(=O)C1CCCCN1Cc1cn[nH]c1-c1ccc(OC)cc1F` (stereo not drawn), inactive: -4%.
As for `COc1ccc(-c2nc(CN(C)Cc3nonc3C)c(C)o2)c(OC)c1C`, the figure is 5.5%; as for `CC(C)Oc1cccc(C(=O)Nc2ncn[nH]2)c1`, inactive: -3.3%; as for `CCCc1nnc(CSc2nc3ccccc3o2)o1`, 8.2%.
As for `O=C(CCN1CCCO1)N1CCOC(CCCc2ccccc2)C1` (stereo not drawn), the figure is 2.5%; as for `O=C(O)c1ccc(-c2nnc(-c3ccccc3Cl)o2)cc1`, active: 78.3%.
For the compound `O=C(c1ccco1)N1CCN(c2c(F)c(F)c(Cl)c(F)c2F)CC1`, the activity is inactive: -1.4%.
Consider `CC(C(=O)NCc1cccnc1N1CCc2ccccc2C1)n1cncn1` (stereo not drawn), for which the activity was inactive: -0.3%.
For `O=C(CCC1CCN(C(=O)CCc2cnccn2)CC1)NC1CCN(Cc2ccccc2)C1` (stereo not drawn), the activity was determined as 7.2%.
For `Cc1cc2c(SCC(=O)NC3CCCC3)ncnc2s1` the value was inactive: -1.1%; for `O=C1CCCN1CCNCc1ccccc1OCC(O)CN1CCCCC1` (stereo not drawn), 8.4%.
Turning to `CN(CCc1ccccn1)c1ncccc1CNC(=O)C1CCCC1`, the activity is 1.9%.
Take `O=C(Cn1nnc(-c2cccs2)n1)NCCC1=CCCCC1`: the activity is inactive: -7.9%.
For `CN(C)CCNC(=O)c1ccc(OC2CCN(Cc3nccn3C)CC2)c(Cl)c1`, the activity was inactive: -6.7%.
As to `CCC(C)OC1=CC=CC(OCCN2CCN(C)CC2)=[C+]1` (stereo not drawn), the activity stood at 7.7%.
As for `Cc1cnc(C(=O)N2CCCC(CCC(=O)NCc3ccc(F)c(F)c3)C2)cn1` (stereo not drawn), the figure is 6.1%.
As for `O=C(CCC1CCN(C(=O)c2ccc(Cl)s2)CC1)NCc1cccnc1`, the figure is inactive: -0.6%; as for `COc1cc(CN2CCN(Cc3ccc(F)c(F)c3)C(CCO)C2)ccc1O` (stereo not drawn), 5.6%; as for `O=C(C(=O)N1CCOC(CC2CCCCC2)C1)c1ccccc1` (stereo not drawn), 5.9%.
`CC(C)Oc1cccc(NC(=O)Nc2ccccc2)c1`: the activity amounted to 6.3%.
Take `CC(C)CCCC1CN(c2ccnc(CO)c2)CCO1` (stereo not drawn): the activity is inactive: -2.6%.
For the compound `C=CCn1cc(CNC2CCCN(Cc3ccccc3F)C2)c(C)n1` (stereo not drawn), the activity came out at 6%.
As for `COc1cc(CNCCc2cnccn2)ccc1OCC(O)CN1CCSCC1` (stereo not drawn), the activity was determined as 1.9%.
With `Cc1ccc(C2(c3noc(CN4CCN(C5CCS(=O)(=O)C5)CC4)n3)CCCC2)cc1` (stereo not drawn), the activity came out at 2.6%.
Take `CCc1ocnc1C(=O)N1CCC2(CCCN(Cc3ccc(F)cc3)C2=O)C1` (stereo not drawn): the activity is 1.8%.
As for `O=C(NCC(c1ccncc1)N1CCOCC1)c1cn(Cc2ccc(F)cc2Cl)nn1` (stereo not drawn), the figure is 6.3%.
